Results on eight molecules are retold here after patent publication US20230046828A1.

No constants are given. Whether binding was seen depends on the method and setting. Binding can be weak; no strength is given.

Test [1] concerns the target CXCL12 (CXC Ligand 12) (UniProt O62657). The test is described as follows: alanine-scan SPOT peptide array probed with CXCL12-His6, anti-His-HRP.
For test [2] the target is unchanged. In words: peptide array, unmodified CXCL12 binding peptide probed with CXCL12.
The target is the same in test [3]. In words: BLI interferograms, biotinylated HMGB1 construct on streptavidin sensor, CXCL12 0-150 µM.
For test [4] the target is unchanged. In words: BLI, biotinylated HMGB1 construct on streptavidin sensor, CXCL12 0-150 µM; response at equilibrium against concentration. On the technique in general: BLI is a label-free optical method that tracks binding on a fibre tip over time.
For test [5] the target is unchanged. The test is described as follows: summary of BLI, peptide array and NMR results.
Test [6] shares this target. In words: BLI, biotinylated HMGB1 construct on streptavidin sensors, CXCL12 0-150 µM.

B1: SEQ ID NO 106 (peptide)
peptide: MSSYAFFVQTCREEH
Take B1: the binding result in the test with CXCL12 (CXC Ligand 12) [1] and with CXCL12 (CXC Ligand 12) [2] was “binds” throughout.

B2: SEQ ID NO 108 (peptide)
peptide: KADKARYEREMKTYIPPKG
For the molecule B2, the binding result in the test with CXCL12 (CXC Ligand 12) [1] and with CXCL12 (CXC Ligand 12) [2] was “binds” each time.

B3: SEQ ID NO 107 (peptide)
peptide: HKKKHPDASVNFSEF
Take B3: the binding result in the test with CXCL12 (CXC Ligand 12) [1] and with CXCL12 (CXC Ligand 12) [2] was “binds” throughout.

B4: FR-HMGB1 Box A 1-88 (full HMG Box with flanking regions) (ligand)
chain: GKGDPKKPRGKMSSYAFFVQTCREEHKKKHPDASVNFSEFSKKCSERWKTMSAKEKGKFEDMAKADKARYEREMKTYIPPKGETKKKF
modifications: biotinylated in BLI
Regarding B4, the binding entry with CXCL12 (CXC Ligand 12) [3], with CXCL12 (CXC Ligand 12) [4], with CXCL12 (CXC Ligand 12) [5] and with CXCL12 (CXC Ligand 12) [6] was “binds” in each case.

B5: SEQ ID NO 105 (peptide)
peptide: DPKKPRGKMSSYAFFVQ
For B5, the binding entry in the test with CXCL12 (CXC Ligand 12) [1] and in the test with CXCL12 (CXC Ligand 12) [2] was “binds” throughout.

B6: SEQ ID NO 111 (peptide)
peptide: LKEKYEKDIAAYRAKGKPD
Take B6: the binding entry in the test with CXCL12 (CXC Ligand 12) [2] is reported as “binds”.

B7: SEQ ID NO 109 (peptide)
peptide: DPNAPKRPPSAFFLFCSEY
As for B7, the binding entry in the test with CXCL12 (CXC Ligand 12) [2] is “binds”.

B8: SEQ ID NO 110 (peptide)
peptide: YRPKIKGEHPGLSIG
With B8, the binding entry with CXCL12 (CXC Ligand 12) [1] and with CXCL12 (CXC Ligand 12) [2] was “binds” each time.
